PMC11784013, “Potassium molybdate blocks APN-dependent coronavirus entry by degrading receptor via PIK3C3-mediated autophagy” (Journal of Virology, 2024)
These are yes or no findings as the source states them, for the method shown. In cells and extracts the contact can be indirect. Some results given as binding are weak or reduced against the parent protein; the word gives no strength.

Amino acid sequences for entries named in this document (tags omitted).
UniProt Q4A1L5: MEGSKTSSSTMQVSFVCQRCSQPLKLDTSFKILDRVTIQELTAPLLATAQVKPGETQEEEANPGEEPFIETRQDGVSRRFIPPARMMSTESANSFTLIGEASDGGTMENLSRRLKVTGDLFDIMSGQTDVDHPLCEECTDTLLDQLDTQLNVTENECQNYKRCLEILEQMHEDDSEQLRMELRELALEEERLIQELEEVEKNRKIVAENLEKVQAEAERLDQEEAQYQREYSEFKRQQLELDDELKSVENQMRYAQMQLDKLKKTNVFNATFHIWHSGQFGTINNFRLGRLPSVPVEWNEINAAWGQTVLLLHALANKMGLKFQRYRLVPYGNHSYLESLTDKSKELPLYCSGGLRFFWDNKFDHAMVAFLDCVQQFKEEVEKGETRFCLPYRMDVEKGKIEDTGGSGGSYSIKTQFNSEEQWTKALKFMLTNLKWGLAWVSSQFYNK
UniProt F1SSN7: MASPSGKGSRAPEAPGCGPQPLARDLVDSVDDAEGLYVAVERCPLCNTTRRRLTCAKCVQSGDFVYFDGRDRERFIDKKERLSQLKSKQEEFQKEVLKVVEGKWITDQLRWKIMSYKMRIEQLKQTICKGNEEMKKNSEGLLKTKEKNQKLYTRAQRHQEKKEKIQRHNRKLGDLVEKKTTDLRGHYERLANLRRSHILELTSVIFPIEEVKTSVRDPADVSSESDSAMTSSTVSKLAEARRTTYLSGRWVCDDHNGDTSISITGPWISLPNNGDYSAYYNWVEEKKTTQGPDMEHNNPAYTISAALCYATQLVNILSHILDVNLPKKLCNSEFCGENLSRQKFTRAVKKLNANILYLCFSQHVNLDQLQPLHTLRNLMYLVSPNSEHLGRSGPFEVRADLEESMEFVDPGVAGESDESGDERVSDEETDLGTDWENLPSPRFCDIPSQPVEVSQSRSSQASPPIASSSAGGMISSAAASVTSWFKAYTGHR

What was measured:
[1] = molecular target: Flag-BECN1 (porcine Beclin-1) (porcine) (UniProt Q4A1L5); test: co-IP
[2] = molecular target: His-ATG14 (porcine autophagy-related gene 14) (porcine) (UniProt F1SSN7); test: co-IP

binding [1]	binding [2]	Substance
binds	–	His-ATG14 (porcine autophagy-related gene 14) (from UniProt F1SSN7 1-492)
–	binds	Flag-BECN1 (porcine Beclin-1) (from UniProt Q4A1L5 1-448)
